The results in this text go back to patent US20180055768A1.

Chains of the proteins cited; added tags and fusions are not shown. Lines headed by an entry give the natural chain unless they say otherwise; changes in a name come on top.
UniProt Q99816: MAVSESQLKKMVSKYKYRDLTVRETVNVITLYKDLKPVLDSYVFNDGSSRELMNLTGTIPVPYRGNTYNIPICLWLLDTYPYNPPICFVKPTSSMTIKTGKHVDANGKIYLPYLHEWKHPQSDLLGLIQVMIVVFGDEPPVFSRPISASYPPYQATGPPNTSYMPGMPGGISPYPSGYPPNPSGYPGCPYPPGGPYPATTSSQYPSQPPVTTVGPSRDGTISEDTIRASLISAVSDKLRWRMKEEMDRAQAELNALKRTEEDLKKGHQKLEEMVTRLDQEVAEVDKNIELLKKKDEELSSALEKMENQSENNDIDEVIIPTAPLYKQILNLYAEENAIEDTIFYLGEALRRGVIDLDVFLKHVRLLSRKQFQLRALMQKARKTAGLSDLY
UniProt O00308: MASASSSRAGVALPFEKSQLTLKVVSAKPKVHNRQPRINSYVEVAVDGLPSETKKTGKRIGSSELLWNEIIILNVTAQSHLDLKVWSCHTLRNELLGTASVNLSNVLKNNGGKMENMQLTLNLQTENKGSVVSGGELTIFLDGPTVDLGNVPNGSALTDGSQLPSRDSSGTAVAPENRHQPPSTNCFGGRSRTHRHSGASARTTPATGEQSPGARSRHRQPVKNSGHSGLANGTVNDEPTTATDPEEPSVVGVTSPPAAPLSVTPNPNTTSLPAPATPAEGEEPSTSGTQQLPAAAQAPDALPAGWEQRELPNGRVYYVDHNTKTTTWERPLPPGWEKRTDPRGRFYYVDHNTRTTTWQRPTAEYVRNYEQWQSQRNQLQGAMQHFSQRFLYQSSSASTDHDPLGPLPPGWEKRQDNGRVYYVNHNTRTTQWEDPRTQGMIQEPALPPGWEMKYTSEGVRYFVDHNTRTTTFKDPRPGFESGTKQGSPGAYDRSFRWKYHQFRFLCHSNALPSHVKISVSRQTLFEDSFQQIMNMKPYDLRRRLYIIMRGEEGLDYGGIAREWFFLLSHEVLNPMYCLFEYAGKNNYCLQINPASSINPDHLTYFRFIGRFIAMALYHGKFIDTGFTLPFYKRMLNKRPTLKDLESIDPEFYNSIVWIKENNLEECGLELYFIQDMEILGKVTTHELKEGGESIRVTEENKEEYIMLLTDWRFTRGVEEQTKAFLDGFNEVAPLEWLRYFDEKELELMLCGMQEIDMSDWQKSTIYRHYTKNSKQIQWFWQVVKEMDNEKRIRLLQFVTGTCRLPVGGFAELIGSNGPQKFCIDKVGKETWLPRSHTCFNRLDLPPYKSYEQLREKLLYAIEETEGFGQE

Results are given in words; binding and its absence hold for the method and conditions named. In cells and extracts the contact can be indirect. Some results given as binding are weak or reduced against the parent protein; the word gives no strength. For some assays here: Sequences can lack the tags named with a protein.

For assay [1], the target named is ARRDC1 (constructs of FIG. 9, plasmids not given) (Homo sapiens) (UniProt Q8N5I2). The experiment in a line: anti-FLAG co-immunoprecipitation from 293T cells, Western blot (FIG. 9). (A western blot detects proteins with antibodies after separation by electrophoresis.)
In assay [2] the target is HA-tagged TSG101 (wild type) (Homo sapiens) (UniProt Q99816). The assay can be described thus: anti-FLAG co-immunoprecipitation from 293T cells, Western blot.
The target is the same in assay [3]. The experiment in a line: anti-FLAG co-immunoprecipitation from 293T cells, Western blot (FIG. 1C).
Assay [4] has the same target. The assay can be described thus: co-immunoprecipitation and yeast two-hybrid, as summed up in the discussion.
Assay [5] deals with GFP-tagged WWP2 (UniProt O00308). The experiment in a line: anti-HA co-immunoprecipitation from 293T cells, Western blot (FIG. 5B).

B1: ARRDC1 (constructs of FIG. 9, plasmids not specified in the text) (protein)
chain: MGRVQLFEISLSHGRVVYSPGEPLAGTVRVRLGAPLPFRAIRVTCIGSCGVSNKANDTAWVVEEGYFNSSLSLADKGSLPAGEHSFPFQFLLPATAPTSFEGPFGKIVHQVRAAIHTPRFSKDHKCSLVFYILSPLNLNSIPDIEQPNVASATKKFSYKLVKTGSVVLTASTDLRGYVVGQALQLHADVENQSGKDTSPVVASLLQKVSYKAKRWIHDVRTIAEVEGAGVKAWRRAQWHEQILVPALPQSALPGCSLIHIDYYLQVSLKAPEATVTLPVFIGNIAVNHAPVSPRPGLGLPPGAPPLVVPSAPPQEEAEAEAAAGGPHFLDPVFLSTKSHSQRQPLLATLSSVPGAPEPCPQDGSPASHPLHPPLCISTGATVPYFAEGSGGPVPTTSTLILPPEYSSWGYPYEAPPSYEQSCGGVEPSLTPES
As to B1, the binding result in assay [1] is given as “binds”.

B2: FLAG-tagged wild-type (wt) ARRDC1 (protein, not shown: small tags and cut ends)
chain: B1 chain
For B2, the binding entry in assay [2], in assay [3] and in assay [4] was “binds” each time.

B3: HA-tagged wt ARRDC1 (protein, not shown: small tags and cut ends)
chain: B1 chain
With B3, the binding result in assay [5] is “binds”.
